# Where “and” joins values, the source holds several entries; their conditions need not be identical. Identical values can stand only once. Hit rate of the full screen: of about 580,000 compounds, about 6,100 (1.1%) were called active. Inconclusive means that the source gave no clear call. Such entries were picked first, then a sample of the others. The call rests on the fitted dose curve; in most records, active means well fitted inhibition curve with a large enough effect; inconclusive means small, poorly fitted or top-dose-only effect, or another doubt; inactive means no such curve, though single readings can be large or run the other way. A potency beside an inconclusive call is a rough fit, not a confirmed value.
# Chains of the proteins cited; added tags and fusions are not shown. Lines headed by an entry give the natural chain unless they say otherwise; changes in a name come on top.
# UniProt P18054: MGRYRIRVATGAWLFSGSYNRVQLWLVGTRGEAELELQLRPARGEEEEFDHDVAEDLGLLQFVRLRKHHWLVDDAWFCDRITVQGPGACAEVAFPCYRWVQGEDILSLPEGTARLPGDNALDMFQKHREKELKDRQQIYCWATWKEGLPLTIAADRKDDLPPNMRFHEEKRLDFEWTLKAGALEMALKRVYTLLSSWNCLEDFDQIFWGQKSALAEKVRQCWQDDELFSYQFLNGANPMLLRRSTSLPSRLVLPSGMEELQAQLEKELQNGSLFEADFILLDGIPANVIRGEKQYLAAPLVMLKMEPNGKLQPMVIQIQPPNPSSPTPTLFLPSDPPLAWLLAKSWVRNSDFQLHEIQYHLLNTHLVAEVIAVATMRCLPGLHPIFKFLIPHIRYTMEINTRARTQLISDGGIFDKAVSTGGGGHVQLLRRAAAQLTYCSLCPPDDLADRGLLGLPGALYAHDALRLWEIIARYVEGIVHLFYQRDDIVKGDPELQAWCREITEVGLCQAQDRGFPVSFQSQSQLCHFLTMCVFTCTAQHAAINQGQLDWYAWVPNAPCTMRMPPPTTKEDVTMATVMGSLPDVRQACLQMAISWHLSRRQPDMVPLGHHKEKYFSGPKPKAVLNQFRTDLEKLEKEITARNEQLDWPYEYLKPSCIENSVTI
# Target: Polyunsaturated fatty acid lipoxygenase ALOX12 (Homo sapiens) (UniProt P18054)
# Experiment: Primary qHTS assay for inhibitors of human arachidonate 12S-lipoxygenase (ALOX12): Round 2
# Settings: purified 12hLO, xylenol orange hydroperoxide absorbance; activity change, negative = inhibition: at 108 µM (top of the series) unless noted
# How it was run: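 Hydroperoxide product was detected by ferrous iron/xylenol orange as the 573 to 405 nm absorbance ratio. Arachidonic acid at 40 uM (final) was turned over for 30 min at room temperature by 150 nM human 12hLO, pH 7.0 Hepes buffer, after 15 min compound preincubation.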
# On the % scale 0 is the no-effect control and ±100 the full control effect; potency means the concentration at half of the fitted maximal effect.
SMILES,Potency,"activity change, negative = inhibition"
OC1CCCN(CC(O)COC(c2ccccc2)c2ccccc2)C1 (stereo not given),"inconclusive: 4.47 µM [inhibitor, full curve, poor fit]",–
CC(C)Oc1ccc(C(=O)N(Cc2ccc(N(C)C)cc2)Cc2ccco2)cc1,"inconclusive: 141 µM [inhibitor, partial curve, poor fit]",–
COc1ccc(OC)c(NC(=O)C2CCCN2C(=O)C23CC4CC(CC(C4)C2)C3)c1 (stereo not given),"inconclusive: 79.4 µM [inhibitor, partial curve, poor fit]",–
Oc1cccc(Nc2cc3[nH]c(-c4ccccc4)cc3cn2)c1,"inconclusive: 100 µM [inhibitor, partial curve, poor fit]",–
CCOC(=O)c1c(C)oc2nc(C)nc(NCCc3ccc(C)cc3)c12,inactive,–
c1ccc(C2=NOC3(CCN(Cc4c[nH]c5ccccc45)CC3)C2)cc1,"inconclusive: 63.1 µM [inhibitor, partial curve, poor fit]",–
CCn1cnc2c1c(=O)n(CC(=O)NCc1cccs1)c(=O)n2Cc1ccccc1,"inconclusive: 17.8 µM [inhibitor, partial curve, poor fit]",–
S=C(Nc1ccccc1)Nc1nc2ccccc2n1CCOc1ccc(Br)cc1,active: 28.2 µM,–
CCNC(=O)COC(=O)CCNC(=O)c1cccc(C)c1,"inconclusive: 100 µM [inhibitor, single point]",–
CCN(CC)c1ccc(N=Cc2ccc(Br)s2)cc1,"inconclusive: 39.8 µM [inhibitor, partial curve, poor fit]",–
CCN(CC(=O)NCc1ccc(Cl)cc1)C(=O)c1sccc1C,"inconclusive: 2.24 µM [inhibitor, full curve, poor fit]",–
C/C(=N\NC(N)=S)c1ccc2c(c1)OCCO2,"inconclusive: 89.1 µM [inhibitor, single point]",–
O=c1[nH]n(-c2ccccc2)c(=O)c2ccccc12,inactive,–
Cc1cnc(NC(=O)Cc2ccccc2F)s1,"inconclusive: 100 µM [inhibitor, single point]",–
CNC(=S)N/N=C/c1c(C)c(C(=O)c2ccc(F)cc2)n2ccccc12,active: 35.5 µM,–
CCN1CCCC1CNCC(=O)Nc1ccc(OC(F)(F)F)cc1 (stereo not given),"inconclusive: 17.8 µM [inhibitor, full curve, poor fit]",–
CCCC1NC(=O)c2cccnc2-n2c1nc1ccc(C)cc1c2=O (stereo not given),inactive,–
Cc1ccc(-c2cnc(-c3ccccc3C(=O)OCC(=O)NCCC#N)o2)cc1,"inconclusive: 39.8 µM [inhibitor, partial curve, poor fit]",–
C=CCNc1ncnc2c1cnn2-c1ccc(Cl)cc1,"inconclusive: 1 µM [inhibitor, full curve, poor fit]",–
CCN(CC)CCC/C(=N\O)C(O)(c1ccccc1)c1ccccc1,"inconclusive: 79.4 µM [inhibitor, partial curve, poor fit]",–
Cc1ccc(OCC(=O)O/N=C(\N)c2ccccn2)cc1C,"inconclusive: 39.8 µM [inhibitor, single point]",–
CC(C)CCCC(C)CC1C(C#N)=C(N)SC(N)=C1C#N (stereo not given),"inconclusive: 4.47 µM [inhibitor, full curve, poor fit]",–

SMILES,Potency,"activity change, negative = inhibition"
COc1ccccc1N1CCN(CCN2C(=O)CC3(CCCC3)CC2=O)CC1,"inconclusive: 7.08 µM [inhibitor, full curve, poor fit] and inconclusive: 50.1 µM [inhibitor, single point]",–
CCCCN(CCCC)S(=O)(=O)c1ccc(NC(=O)Cc2cccs2)cc1,"inconclusive: 70.8 µM [inhibitor, partial curve, poor fit]",–
C=CCOc1ccccc1/C=C/C(=O)O,"inconclusive: 5.01 µM [inhibitor, full curve, poor fit]",–
c1ccc(CCN2CCN(c3ncnc4c3cnn4-c3ccccc3)CC2)cc1,inactive,–
Nc1ccc(C(=O)OCC(=O)N2c3ccccc3Sc3ccccc32)cc1[N+](=O)[O-],inactive,–
Cc1nc(C(F)(F)F)ccc1C(=O)N1CCC1(C)C(=O)NS(=O)(=O)c1cccc(Cl)c1 (stereo not given),"inconclusive: 35.5 µM [inhibitor, partial curve, poor fit]",–
O=C(CN1CCN(S(=O)(=O)c2ccc(Cl)cc2)CC1)NC(=O)NC1CCCCC1,"inconclusive: 126 µM [inhibitor, single point]",–
CCC(c1nnnn1-c1ccc2c(c1)OCCO2)N1CCN(c2ncccn2)CC1 (stereo not given),"inconclusive: 35.5 µM [inhibitor, single point]",–
CCc1nc2c(c(-c3ccc(O)cc3)n1)CN(Cc1cccc(C(F)(F)F)c1)CC2,"inconclusive: 89.1 µM [inhibitor, single point]",–
COc1ccc(-c2cn3cc(C)ccc3n2)cc1F,inactive,–
CC1CCCCN1S(=O)(=O)c1ccc(-n2cnnn2)cc1 (stereo not given),"inconclusive: 79.4 µM [inhibitor, partial curve, poor fit]",–
CCN(Cc1ccccc1)C(=O)c1cc2cccc(OC)c2oc1=O,inactive,–
O=C(Nc1ccc(SC(F)F)cc1)C1CC(=O)N(Cc2ccccc2)C1 (stereo not given),"inconclusive: 100 µM [inhibitor, single point]",–
Cc1cccc(C(=O)Nc2ccc(N3CC=C(c4ccccc4C)CC3)c(C(=O)O)c2)c1,"inconclusive: 56.2 µM [inhibitor, partial curve, poor fit]",–
Cc1ccc(CN2C(=O)c3ccccc3Sc3ccc(C(=O)N4CCOCC4)cc32)cc1,inactive,–
CN1CCN(c2ncc3nc(-c4cccc(C#N)c4)c(=O)n(CCc4ccccc4)c3n2)CC1,"inconclusive: 25.1 µM [inhibitor, partial curve, poor fit]",–
COc1ccc(-c2cn3c(C)c(C(=O)Nc4ccncc4)sc3n2)cc1,inactive,–
CC(=O)N1CCC2(CC1)CN(C(=O)c1ccnc(N)c1)Cc1ccccc1O2,–,inactive: 2.08% [at 6.33 µM]
C/[N+]([O-])=C\C1C(=O)CCCC1=O,"inconclusive: 0.562 µM [inhibitor, full curve, poor fit]",–
Cc1cc(C)nc(SCC(=O)c2ccc3c(c2)OCCO3)n1,inactive,–
Nc1ccc2cc(S(=O)(=O)O)cc(S(=O)(=O)O)c2c1,inactive,–
CCN1CCN(C(=O)CNC(=O)c2nn(-c3ccc(OC)cc3)c(=O)c3ccccc23)CC1,"inconclusive: 112 µM [inhibitor, single point]",–

SMILES,Potency,"activity change, negative = inhibition"
COc1ccc(-c2csc(NC(=O)C3CC(=O)N(c4ccc5c(c4)OCCO5)C3)n2)cc1 (stereo not given),"inconclusive: 126 µM [inhibitor, partial curve, poor fit]",–
CC(C)c1ccccc1NC(=O)c1csc2c1CCCC2,"inconclusive: 39.8 µM [inhibitor, single point]",–
COc1cc(NS(=O)(=O)c2ccc(-c3cnc(C4CC4)o3)cc2)cc(OC)c1,"inconclusive: 0.251 µM [inhibitor, full curve, poor fit]",–
N#Cc1ccccc1CN1C(=O)NC(c2cccnc2)(C2CCNCC2)C1=O (stereo not given),"inconclusive: 15.8 µM [inhibitor, full curve, poor fit]",–
COc1ccc(C(=O)OCC(=O)NC2CC2)cc1,"inconclusive: 126 µM [inhibitor, single point]",–
COc1ccc(N(Cc2cc3ccccc3[nH]c2=O)S(=O)(=O)c2ccc(C)cc2)cc1,"inconclusive: 79.4 µM [inhibitor, partial curve, poor fit]",–
CCC(C)Nc1nc2c(c(=O)[nH]c(=O)n2C)n1Cc1ccc(F)cc1 (stereo not given),"inconclusive: 35.5 µM [inhibitor, single point]",–
CCN1CCN(CC(O)COc2ccc(C)c(C)c2)CC1 (stereo not given),"inconclusive: 31.6 µM [inhibitor, partial curve, poor fit]",–
S=C(NCCc1ccccn1)Nc1ccc(Cl)cc1Cl,"inconclusive: 50.1 µM [inhibitor, partial curve, poor fit]",–
N#Cc1cnc2ccc(F)cc2c1Nc1cccc(C(F)(F)F)c1,"inconclusive: 0.447 µM [inhibitor, partial curve, poor fit]",–
CC(=O)N1c2ccccc2Oc2cc3ccccc3cc21,"inconclusive: 56.2 µM [inhibitor, partial curve, poor fit]",–
C=CCNC(=S)N/N=C(\C)c1ccc(OC)cc1,active: 39.8 µM,–
Cc1cc(C)cc(NC(=O)CSc2nnc(-c3ccccc3Br)o2)c1,"inconclusive: 79.4 µM [inhibitor, single point]",–
N#Cc1cccc(-c2cncnc2-n2ccnc2)c1,"inconclusive: 35.5 µM [inhibitor, partial curve, poor fit]",–
CCOc1ccc(N(CC(=O)NC(C)(C)C)S(=O)(=O)c2c(C)noc2C)cc1,inactive,–
Cc1noc(-c2cn(C3CCN(C(=O)Cc4ccc(Cl)cc4)CC3)nn2)n1,"inconclusive: 28.2 µM [inhibitor, partial curve]",–
COc1ccc(CN(C)C(=O)c2n[nH]c(=O)c3ccccc23)cc1F,inactive,–
CCc1ccc(CN2CCN(C(=O)c3ccco3)CC2)cc1,"inconclusive: 1.26 µM [inhibitor, full curve, poor fit]",–
CN(C)CCNC(=O)c1nc(-c2ccccc2)cc2[nH]ccc12,inactive,–
CC1=C(c2ccc(C)cc2)S(=O)(=O)NC1=NCc1ccccc1Cl,"inconclusive: 25.1 µM [inhibitor, partial curve, poor fit]",–
COc1ccc(OC)c(Nc2nc(-c3cccc([N+](=O)[O-])c3)nc3ccccc23)c1,"inconclusive: 112 µM [inhibitor, partial curve, poor fit]",–
